In the supplement of paper PMC3334620:
In all, about 33,000 sequences were measured (“E-score (-0.5 to 0.5)”: median about -0.0059, highest 2% from about 0.26 on). The list shows a part of the results.

Each sequence was assayed against T1, Cin5 (UniProt P40917) (assay: PBM E-score (8-mer binding enrichment) (E-score (-0.5 to 0.5)); higher = stronger / more preferred TF binding). Details: protein concentration: 100 nM; construct: GST-full length.
T1 sequence: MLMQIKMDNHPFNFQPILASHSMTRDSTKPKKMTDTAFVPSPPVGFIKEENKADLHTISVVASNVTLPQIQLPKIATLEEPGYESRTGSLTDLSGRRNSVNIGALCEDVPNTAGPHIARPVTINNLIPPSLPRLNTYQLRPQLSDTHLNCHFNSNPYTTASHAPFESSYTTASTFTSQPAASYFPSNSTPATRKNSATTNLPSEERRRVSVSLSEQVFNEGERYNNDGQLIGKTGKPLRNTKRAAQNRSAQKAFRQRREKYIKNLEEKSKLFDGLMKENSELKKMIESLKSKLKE
Outline: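 For each ungapped eight-base word taken together with its reverse complement, the Universal PBM Analysis Suite assigned an E-score. Binding data came from GST-tagged yeast transcription factors, applied at about 100-200 nM, on universal all-10-mer Agilent arrays made double-stranded by primer extension. Fluorescent anti-GST marked bound protein, and scans were normalised with masliner.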

Sequence | PBM E-score
ACAGGTAG | 0.0119
AGCAAGGA | -0.0527
AGCCATTG | 0.113
AAAGTCAT | 0.118
AATGTGAC | 0.0716
GAGCGGAA | 0.161
AGATCCAC | 0.141
AGGACTAA | 0.00777
CACGAGGG | -0.264
AGAATAGC | 0.061
TGGAGCAA | 0.0281
ATCCTCGG | -0.0226
AGTCGTAC | -0.0879
CCCAATAA | 0.106
ACGAGGGG | -0.299
GCGTTGAC | -0.111
ATCAGACG | 0.0547
ACTGCGGG | -0.0914
AAATGACT | -0.0314
GCAGGTTA | -0.124
TACTGCTA | 0.139
AAACACAT | 0.0346
ATCTGCTC | -0.0403
AGGGCCCT | -0.102
ATCCGGGG | 0.0968

Sequence | PBM E-score
TAAAACTA | 0.2
AATTAACA | 0.191
TGGCGACA | -0.0366
CTATACGC | 0.0876
CTGCTTCC | -0.178
AGAAGTTC | -0.146
GTCGAAAA | -0.00795
ATAATGGC | 0.195
CAGTCCCA | -0.148
AATGCTCC | -0.064
CAACCTAG | -0.133
AGCCTGGG | -0.2
AAAGCATT | 0.0405
CCATGCAA | 0.132
ACTGGCTG | -0.0522
GCGACTAC | -0.0223
ACAACTCC | 0.0848
AACCCAGT | -0.0374
GGGGGACC | -0.391
CGATCTAA | 0.178
AAGGTGTA | -0.0871
CACTGCCA | -0.0785
CAAATCCG | 0.0844
CAATGGTC | 0.0916
AAGGGAAG | -0.0754

Rewritten as tab-separated lines: entries from further up.
Sequence	PBM E-score
AGCCTGGG	-0.2
AAAGCATT	0.0405
CCATGCAA	0.132
ACTGGCTG	-0.0522
GCGACTAC	-0.0223
ACAACTCC	0.0848
AACCCAGT	-0.0374

(further entries)

Sequence | PBM E-score
AGAATACG | -0.0156
CTTGGTCC | -0.149
CACAACAG | -0.185
GAACACAC | -0.041
AACCGGGA | -0.146
CAGCAGGA | -0.0169
AAAGGTTC | -0.023
TCAGTGCA | -0.0765
CCGGCAGA | -0.212
CGGCGATC | -0.0399
GCGCCGGA | -0.117
GCTTAACA | 0.0285
ATCGAGCC | -0.104
CGGCCCCA | -0.255
CTCACATA | 0.164
TAGTGGAA | 0.0595
TCGGTGCA | -0.0208
CATGCATA | 0.0554
TGAAGGCA | 0.0551
GTGCAGAA | -0.118
AGATTAGC | 0.028
AGAGACAG | -0.0862
AACTCCAC | 0.00478
AAGGTCAA | -0.088
GCAGAGCA | -0.217

Shown tab-delimited: part of the list above
Sequence	PBM E-score
AGAATACG	-0.0156
AACCGGGA	-0.146
CATGCATA	0.0554
AGATTAGC	0.028

Following part

Sequence | PBM E-score
CTTGCGAC | -0.128
GAGTCCTA | -0.254
ATAGGGTA | 0.126
CTAGGATC | -0.139
ATTTGGAA | 0.125
TAATTCCA | 0.102
GACCAGGC | -0.142
ACGCTTAT | 0.101
CAATAGTA | 0.194
AAGTACTC | 0.0253
AAATCCAG | 0.13
GTTCGTAA | 0.153
GTTGTCCA | 0.143
AGAATGAT | 0.182
CTTTAGTA | -0.00776
AGCTGTGA | 0.0708
CCAACCGC | 0.0876
AAATCCCA | 0.0247
GGTGGCTA | -0.0602
TCCGCCCA | -0.00394
TAGGTATA | 0.167
AAATATGC | 0.0156
CCGTATTA | 0.134
GAATGGAC | -0.0316
TTCTACAA | 0.0644

Sequence | PBM E-score
GTTGCAGA | 0.00874
TCCCTTAA | -0.186
AAGATTAT | 0.239
CCGGGTCC | -0.303
TAATACAA | 0.232
GATTATTA | 0.316
AATTTAGA | 0.0855
CCGCTGTA | 0.0177
CGCCCACG | -0.11
CAATCGCA | 0.13
ACGACTCA | -0.118
ATGGGCCG | -0.137
TTAATTAA | 0.183
GTCACTTA | 0.113
GACGCATC | 0.00795
CGCCTAGA | -0.1
CATAGGCA | -0.0176
TCCCCGAA | -0.0728
GGTCCTAA | -0.143
GGGAAGTA | 0.0697
ATGGTGTC | 0.0539
ACGATTCC | -0.00185
CAATGGGA | -0.0693
GTTATTGA | 0.0972
ATGGTATC | 0.188

Sequence | PBM E-score
ATTCGTCA | 0.127
ACCCTGAC | -0.0537
GGATCTGA | -0.0967
CCTTAGGC | -0.335
AGTGTGCG | -0.0425
AGTATCTA | 0.242
GTTCACTA | -0.0359
CAATTGCG | 0.00989
CCCGTCGG | -0.122
AATGTTCC | 0.033
AGGTCATC | 0.101
GCCCCAAC | 0.228
AGTCCGTA | -0.126
GAAGAGCC | -0.147
CCCCTATC | -0.111
ACCGCACG | -0.141
ACTCGCAC | -0.0154
ATATAGTG | 0.235
ACATAGCG | -0.0772
CTTTGCAC | -0.00532
CAGGAGAC | -0.0701
GCATCCTA | -0.0606
ACAGCCTA | 0.0697
ATCAACTG | 0.128
AAGAGGTC | 0.00337

Sequence | PBM E-score
GCCGTTAA | -0.0272
ATCCCAGG | -0.174
CCAGTTAC | -0.186
TGGCAAAA | 0.123
CCTAAAAA | 0.0181
ACCAGACT | -0.096
ACAATTAT | 0.205
ATTTGTGG | 0.102
ACGAAGTG | 0.103
ATAAGCCG | 0.167
CTTAAATC | 0.0581
TCAAGTAA | 0.14
GCGTTCAA | -0.0868
CTCGTTCA | -0.1
GAAGCTCA | 0.014
CGCCTCCC | -0.338
AGGCAGCC | -0.0396
AAAACGGG | 0.146
AATTGGGG | 0.0653
GCTCAGAC | -0.026
AACCCGTT | -0.103
CACCCAGC | -0.16
ACTCGAGT | 0.0891
AGAATGAA | 0.185
TCGGCTAA | 0.0227

Sequence | PBM E-score
AGACGGTA | 0.0472
TAGTTGGA | -0.0115
CCACCGAC | -0.0661
AAAGAGAT | 0.0293
TACAGATA | 0.103
AATCCTGC | 0.0423
ACAACGGT | -0.135
ACACGGTA | -0.0147
AAACGATG | 0.0533
TAGCTGCA | -0.208
ATATGGGC | 0.157
TACACCGA | 0.0105
ATATGCCA | 0.225
AACCCGGT | -0.0176
GAAAAGGC | -0.0591
AACACATA | 0.127
GTGCCTGA | -0.215
TCAACAAA | 0.134
ACGCGCAC | 0.0077
GAAGAGCA | -0.189
CCACGCAA | -0.107
CAAGAGCA | -0.0892
ATCCACCA | 0.0805
CTTGCTTA | 0.229
CACGACTC | -0.144

Sequence | PBM E-score
GAACAACC | 0.0755
CGGCACCG | 0.00123
AATGCCGC | 0.13
ATTGTAAG | 0.0427
CAATGCTC | 0.00285
CAAACTTG | 0.0884
CTATGAGC | -0.183
CATAGTAG | 0.228
AAGTCCCC | -0.197
GAGGGTGA | -0.0364
AACCCGGG | -0.0485
AAGTACGG | 0.0604
TAGCTAGA | 0.0511
ATGAGGCA | -0.0643
GACGTTGC | 0.0386
ATATGCGC | 0.0712
ATATCATA | 0.288
AGGTACCC | -0.287
CATCCAAC | 0.109
